Measurements taken from the supplement of paper PMC12067093, “Discovery and optimisation of a covalent ligand for TRIM25 and its application to targeted protein ubiquitination” (Chemical Science, 2025).
This is one part of the list.

Compound: Cc1cc(ccc1-c1ccccc1)C(=O)N1CCCN(CC1)C(=O)CCl [compound 10]
Assay: probe-labelled cysteine peptide fold change vs DMSO (competition) (log2 fold change); higher = less target engagement (more negative = stronger competition)
Conditions: THP-1, incubation time: 4 h
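Further: competitive profiling in live THP-1 cells: cysteine peptides tagged with an iodoacetamide desthiobiotin (IA-DTB) probe, intensity after compound treatment relative to DMSO-treated cells.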

Target	probe-labelled cysteine peptide fold change (10 µM)	probe-labelled cysteine peptide fold change (50 µM)
MYO1F_O00160_101+105_NMLIDCENQCVIISGESGAGK (UniProt O00160)	0.148	-0.228
NAIP_Q13075_124_FHPDCGFLLNK (UniProt Q13075)	-0.0445	-0.19
NAT10_Q9H0A0_194_FILSLASCK (UniProt Q9H0A0)	0.27	-0.0498
NASP_P49321_84_KYGETANECGEAFFFYGK (UniProt P49321)	0.146	-0.0732
NCAPH2_Q6IBW4_309_EGAPEPASCVK (UniProt Q6IBW4)	-0.129	0.0477
N4BP2_Q86UW6_1096_STFVEESELTSADESENLNILCK (UniProt Q86UW6)	-0.0224	-0.343
MYO6_Q9UM54_63_DVEDNCSLMYLNEATLLHNIK (UniProt Q9UM54)	-0.133	0.237
NAA25_Q14CX7_235_CMAMYK (UniProt Q14CX7)	-0.242	-0.0999
NAB2_Q15742_499_CPAPGPHPALVEGR (UniProt Q15742)	0.15	0.289
NAPA_P54920_84_HDAATCFVDAGNAFK (UniProt P54920)	0.108	0.0794
NCALD_P61601_38_DCPSGHLSMEEFKK (UniProt P61601)	0.362	-0.0319
NANS_Q9NR45_46_ECGADCAK (UniProt Q9NR45)	0.204	-0.0313
NAT10_Q9H0A0_746_QTPNDLTGEHSCIMLK (UniProt Q9H0A0)	0.0778	0.0179
NBEAL2_Q6ZNJ1_1661_CSWLVPLVR (UniProt Q6ZNJ1)	0.185	0.0341
NAA15_Q9BXJ9_238_GELLLQLCR (UniProt Q9BXJ9)	0.084	0.258
NCBP1_Q09161_477_ILDIVPPTFSALCPANPTCIYK (UniProt Q09161)	0.202	-0.118
NARS_O43776_511_KYGTCPHGGYGLGLER (UniProt O43776)	-0.519	0.0682
MYO9B_Q13459_62_CYVLVEVK (UniProt Q13459)	0.169	-0.198
NBEAL1_Q6ZS30_271_CLTEVVHILLSSNSDQR (UniProt Q6ZS30)	0.268	0.156
NAT10_Q9H0A0_105_YCYYNETHK (UniProt Q9H0A0)	0.142	0.294
NCAPG_Q9BPX3_667_TLHCEGTEINSDDEQESK (UniProt Q9BPX3)	-0.265	-0.36

Target	probe-labelled cysteine peptide fold change (10 µM)	probe-labelled cysteine peptide fold change (50 µM)
NAXD_Q8IW45_82_IGVVGGCQEYTGAPYFAAISALK (UniProt Q8IW45)	-0.148	-0.00057
NCBP1_Q09161_36_TSDANETEDHLESLICK (UniProt Q09161)	0.119	0.291
MYO9B_Q13459_1876_ITTCVEMLIK (UniProt Q13459)	0.0944	-0.0605
N4BP1_O75113_89_DMHCIFVGAESLFLK (UniProt O75113)	-0.00521	-0.223
MYOF_Q9NZM1_1553_ELPDSVPQECTVR (UniProt Q9NZM1)	-0.0698	0.0265
NBN_O60934_478_DEENQEMSSCK (UniProt O60934)	-0.275	-0.425
NAXD_Q8IW45_261_GERDILSNGQQVLVCSQEGSSR (UniProt Q8IW45)	0.321	0.0807
MYO18A_Q92614_1155_RAVEELLECLDLEK (UniProt Q92614)	0.216	0.133
NCAPD3_P42695_824_ASAETPAEEQELLTQVCGDVLSTCEHR (UniProt P42695)	0.0779	0.0896
NAA35_Q5VZE5_409_CYLYNNHQAK (UniProt Q5VZE5)	-0.0926	-0.537
MYO18A_Q92614_508_TTSCQHLVQYLATIAGISGNK (UniProt Q92614)	0.00882	0.4
NARS2_Q96I59_359_HCGNIPVFVINYPLTLK (UniProt Q96I59)	0.0898	0.878
NAXD_Q8IW45_108_VGADLSHVFCASAAAPVIK (UniProt Q8IW45)	0.112	-0.109
NCAPH2_Q6IBW4_184_MNTCVPHPR (UniProt Q6IBW4)	-0.277	0.0782
NAA50_Q9GZZ1_61_LAYFNDIAVGAVCCR (UniProt Q9GZZ1)	0.0194	-0.105
NCAPG2_Q86XI2_776_ECLLSAPR (UniProt Q86XI2)	0.195	-0.122
MYO1F_O00160_856_TEFVSLLCK (UniProt O00160)	0.083	0.109
NAPRT_Q6XQN6_101_ALDCSEVTVR (UniProt Q6XQN6)	0.0272	0.124
MYO9A_B2RTY4_1226_ESSVDCLK (UniProt B2RTY4)	-0.335	-0.173
MYO1G_B0I1T2_942_GQDDLVVCLHR (UniProt B0I1T2)	0.00448	-0.0628
NAGA_P17050_38+42_CNINCDEDPK (UniProt P17050)	0.0241	-0.131

Retrieved one by one from the list above, 4 records:
Target	probe-labelled cysteine peptide fold change (10 µM)	probe-labelled cysteine peptide fold change (50 µM)
NAXD_Q8IW45_82_IGVVGGCQEYTGAPYFAAISALK (UniProt Q8IW45)	-0.148	-0.00057
NAGA_P17050_38+42_CNINCDEDPK (UniProt P17050)	0.0241	-0.131
NAXD_Q8IW45_261_GERDILSNGQQVLVCSQEGSSR (UniProt Q8IW45)	0.321	0.0807
NCAPD3_P42695_824_ASAETPAEEQELLTQVCGDVLSTCEHR (UniProt P42695)	0.0779	0.0896

The results go on.

Target	probe-labelled cysteine peptide fold change (10 µM)	probe-labelled cysteine peptide fold change (50 µM)
NBEAL2_Q6ZNJ1_1619_REEACYVLSK (UniProt Q6ZNJ1)	-0.075	-0.00801
MYOF_Q9NZM1_1392_KPVVGQCTIER (UniProt Q9NZM1)	-0.0854	-0.147
MYO1G_B0I1T2_472_GILAVLDEACSSAGTITDR (UniProt B0I1T2)	0.171	0.136
NAXE_Q8NCW5_115_SPPTVLVICGPGNNGGDGLVCAR (UniProt Q8NCW5)	-0.0561	-0.201
NAA25_Q14CX7_339_SQGCNDEYK (UniProt Q14CX7)	-0.177	-0.598
NCK2_O43639_343_VQLVDNVYCIGQR (UniProt O43639)	0.254	0.126
MYO19_Q96H55_826_MACLAAK (UniProt Q96H55)	-0.352	0.0221
NAE1_Q13564_384_LLCSNSAFLR (UniProt Q13564)	-0.12	-0.0585
MYSM1_Q5VVJ2_360_NLNDNEMLFHSCQMVEESHEEEELKPPEQEIEIDR (UniProt Q5VVJ2)	-0.777	-0.807
N4BP2_Q86UW6_1561_DHNYSLEHTVQFLNCVLEGDPVK (UniProt Q86UW6)	-0.107	-0.591
MYO9A_B2RTY4_1973_TSDCTATK (UniProt B2RTY4)	-0.0627	-0.22
NCAPH_Q15003_267_TAASFDECSTAGVFLSTLHCQDYR (UniProt Q15003)	-0.42	-0.00723
NASP_P49321_708_KPTDGASSSNCVTDISHLVR (UniProt P49321)	-0.0522	-0.111
NAB2_Q15742_481_LSPCVPAKPPLAEFEEGLLDR (UniProt Q15742)	0.0997	-0.905
NAPRT_Q6XQN6_48_CPFGGAFALAAGLR (UniProt Q6XQN6)	-0.753	0.174
MYO9B_Q13459_1857_CPDNSDPLTSMK (UniProt Q13459)	-0.0742	-0.0566
NCBP2_P52298_84_TACGFCFVEYYSR (UniProt P52298)	0.15	-0.00311
NAA50_Q9GZZ1_100_MLNHVLNICEK (UniProt Q9GZZ1)	0.0552	0.109
MYO1G_B0I1T2_618_LDENHCR (UniProt B0I1T2)	0.223	-0.00724
NCAPG_Q9BPX3_751_HCLGVFFPVFAYASR (UniProt Q9BPX3)	-0.0707	-0.0217
NCBP1_Q09161_320_FVIEENLHCIIK (UniProt Q09161)	0.00618	-0.00415

Target	probe-labelled cysteine peptide fold change (10 µM)	probe-labelled cysteine peptide fold change (50 µM)
NAPA_P54920_103_KADPQEAINCLMR (UniProt P54920)	0.277	0.121
NCAPD3_P42695_143_CIQTLK (UniProt P42695)	0.0679	0.134
NCEH1_Q6PIU2_345_TYILTCEHDVLR (UniProt Q6PIU2)	-0.0189	0.271
NARS_O43776_359_LEDLVCDVVDR (UniProt O43776)	0.394	0.672
NCAM2_O15394_380_YDCEAASR (UniProt O15394)	0.118	0.298
NAA16_Q6N069_82_SHVCWHVYGLLQR (UniProt Q6N069)	-0.196	0.182
MYO6_Q9UM54_790_RVNHWLTCSR (UniProt Q9UM54)	0.104	0.475
MYO6_Q9UM54_1265_CGGIQYLQNAIESR (UniProt Q9UM54)	-0.0129	0.0704
MYO6_Q9UM54_321_MCTAMK (UniProt Q9UM54)	0.00117	-0.218
NCAPH2_Q6IBW4_230_DTGRTEEQPMEVSVCR (UniProt Q6IBW4)	-0.479	-0.423
MYO1G_B0I1T2_655_MTCEYTWPNHLLGSDK (UniProt B0I1T2)	0.0888	0.0482
MYO9B_Q13459_34_EQAAYHLHIYPQLSTTESQASCR (UniProt Q13459)	0.137	0.0986
NCAPH_Q15003_255+267_TAASFDECSTAGVFLSTLHCQDYR (UniProt Q15003)	-0.0977	0.138
NCAPG2_Q86XI2_964_MLECIAR (UniProt Q86XI2)	0.193	0.164
NAPA_P54920_212_AALCHFCIDMLNAK (UniProt P54920)	0.0526	0.0407
MYO18A_Q92614_1164_SSCCMGLSR (UniProt Q92614)	0.000388	-0.0802
NCAPG_Q9BPX3_843_ICNEILTSPCSPEIR (UniProt Q9BPX3)	0.135	-0.0501
NAA15_Q9BXJ9_238_LAVEETKGELLLQLCR (UniProt Q9BXJ9)	-0.199	-0.704
